# System: thyroid hormone receptor in nuclei of intact GC cells
# Assay type: cell-based, rat
# Settings: Allfit program
row,Compound,b (slope factor)
1,"CCCCc1oc2ccccc2c1C(=O)c1cc(I)c(OCCN(CC)CC)c(I)c1 [amiodarone, 2-butyl-3-[3,5-diiodo-4-(β-diethylaminoethoxy)-benzoyl]benzofuran]",0.9 ± 0.4
2,"N[C@@H](Cc1cc(I)c(Oc2ccc(O)c(I)c2)c(I)c1)C(=O)O [T3, triiodothyronine]",1.0 ± 0.1
